Reference: article PMC7819943, “Rice protein-binding microarrays: a tool to detect cis-acting elements near promoter regions in rice”
The other results are listed elsewhere or left out.

Protein sequences, listed by entry. Tags and fused reporters are not part of them.
UniProt Q0JBA9, entry or part of it: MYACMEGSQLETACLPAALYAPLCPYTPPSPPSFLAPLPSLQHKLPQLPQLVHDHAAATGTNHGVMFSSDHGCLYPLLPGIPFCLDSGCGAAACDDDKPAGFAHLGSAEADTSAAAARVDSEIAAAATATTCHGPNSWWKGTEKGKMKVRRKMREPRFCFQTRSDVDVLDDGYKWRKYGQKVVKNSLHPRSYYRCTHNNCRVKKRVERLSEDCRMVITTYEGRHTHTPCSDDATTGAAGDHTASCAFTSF

target: OsWRKY34 (Oryza sativa, UniProt Q0JBA9 1-250); assay: protein-binding microarray (RPBM); PBS, 2% BSA, 51.3 ng/ul salmon testes DNA, 50 uM zinc acetate, 200 nM TF, 25 C, 1 h; high values mean tight binding; details: protein: recombinant; tags: N-terminal polyhistidine and DsRed monomer fusion (pET32a); label: CyDye5-dUTP incorporated in the synthesized complementary strand; 3' TTTTT single-stranded linker to array surface; dsDNA, one strand shown
Procedure, shortened: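 Binding signal is defined as the fluorescence intensity of each feature in arbitrary units, read on an Axon 4000B scanner. Transcription factors with N-terminal polyhistidine and DsRed fusions came from E. coli BL21-CodonPlus and were purified on Ni–NTA. They were incubated at 200 nM for 1 h at 25 °C on a custom Agilent array that had been made double-stranded with Cy5-dUTP, with 50 µM zinc acetate present, and the array was washed.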

Row | Sequence | binding signal
1 | ATTCATGGCCTCTTTCTGCCAAGCCGCATATGGAGTTTTTCGGAGTCACCTAGTGCAG | 9920 fluorescence intensity (a.u.)
2 | CCTGATAATTTTTGTTCTAGATTCACCATTTTACCGTTATCGGAGTCACCTAGTGCAG | 8420 fluorescence intensity (a.u.)
3 | GCCACCTTTCCGTTTCCGCCTTGCCATCACCATGGTCGTCCGGAGTCACCTAGTGCAG | 10700 fluorescence intensity (a.u.)
4 | TCCACTCCCAGCCTGATTACAGCGCTACCCATTACTTTTCCGGAGTCACCTAGTGCAG | 11600 fluorescence intensity (a.u.)
5 | CATCGAATCTCGCACCGCCACTGGAACTTGCCAACCCGAGCGGAGTCACCTAGTGCAG | 8560 fluorescence intensity (a.u.)
6 | TGAGATTGTCTGTTGGGAGGTCGTTTGTTTTTTTTTTCCTCGGAGTCACCTAGTGCAG | 12800 fluorescence intensity (a.u.)
7 | CTTCCCGCTATTTGGAGTTTGTTTTTAGCCGCCGTAGTTTCGGAGTCACCTAGTGCAG | 8410 fluorescence intensity (a.u.)
8 | CCACCAACCATGCCTGCCTCACTTTTCTCCGTCATCGATCCGGAGTCACCTAGTGCAG | 8900 fluorescence intensity (a.u.)
9 | GCCAATTGTAACAGCATTTCATTACTTACCCCGTTCTATACGGAGTCACCTAGTGCAG | 9620 fluorescence intensity (a.u.)
10 | CCAACCCAAACCCCGTCGTCTCCTCTCCCGCTCGCTGTCCCGGAGTCACCTAGTGCAG | 9000 fluorescence intensity (a.u.)
11 | TTATCTCCTAGCTCCTCATCTAGCTTTCGTTGAGTTGACTCGGAGTCACCTAGTGCAG | 8020 fluorescence intensity (a.u.)
12 | GTTGCTTGTGCTTTGGTGTGTTTTGTTGTTGGTAGCCATGCGGAGTCACCTAGTGCAG | 11000 fluorescence intensity (a.u.)
13 | TATGACAGTCGTCTTCCCCACACCCGGTGGACCGATGAGCCGGAGTCACCTAGTGCAG | 8030 fluorescence intensity (a.u.)
14 | GGGAGCTTGAATACTGTGTAGGTTTTATTTTCTTTATATGCGGAGTCACCTAGTGCAG | 8450 fluorescence intensity (a.u.)
15 | TCTACCTCCGCCGCACGTGCCGCATCTTCCGCCGCCTCTGCGGAGTCACCTAGTGCAG | 8220 fluorescence intensity (a.u.)
16 | ATATAGTTTATCAGTGGCTGCGTTTGGCTACACTAGTTACCGGAGTCACCTAGTGCAG | 8110 fluorescence intensity (a.u.)
17 | AACCGTCCAAGCACACACTACCGACCACCGCTGCTGTTTTCGGAGTCACCTAGTGCAG | 9970 fluorescence intensity (a.u.)
18 | TTAGTACTGTGATACGATGTCTTTCAGTTGTATCGAGTCTCGGAGTCACCTAGTGCAG | 9420 fluorescence intensity (a.u.)
19 | TTTGTGTGTGTGGTTATGGTTCTTCGCCTATTCATCAACCCGGAGTCACCTAGTGCAG | 9530 fluorescence intensity (a.u.)
20 | CTCACATTCACCACGAGGTTTCTGCTGCTGGTTTGTCTGACGGAGTCACCTAGTGCAG | 9300 fluorescence intensity (a.u.)
21 | GCCACACCTCCCATTCCTTAGCCAAACACTCGCACTACTCCGGAGTCACCTAGTGCAG | 8690 fluorescence intensity (a.u.)

Row | Sequence | binding signal
22 | GCTGGGACTTGGGAGTTGGGATGGATTAGGTTTCGATGTTCGGAGTCACCTAGTGCAG | 8420 fluorescence intensity (a.u.)
23 | AGGTAATTTTTTCTGGGCCTGTATTCTTTTTCTAGGTTCACGGAGTCACCTAGTGCAG | 11200 fluorescence intensity (a.u.)
24 | TGCTCACGTCCGCGCTTGCCTTGCTGTTAGCACTTGCCTCCGGAGTCACCTAGTGCAG | 8730 fluorescence intensity (a.u.)
25 | GTTCCAGCTTCATGCATGCACACACACAGTAGCTCGTGCTCGGAGTCACCTAGTGCAG | 29300 fluorescence intensity (a.u.)
26 | GTTCCTCCACGATTTCTTTTATCCATCTTCTTCTTCTTTCCGGAGTCACCTAGTGCAG | 9150 fluorescence intensity (a.u.)
27 | ACATCAAACTTTCCTACACACATAAACTTTCAACTTTTCCCGGAGTCACCTAGTGCAG | 8910 fluorescence intensity (a.u.)
28 | TAAAATTCCTTGCAGTCATGGTCATCCTCTCCTACACCAGCGGAGTCACCTAGTGCAG | 8770 fluorescence intensity (a.u.)
29 | ATGGATTTCGATGGTGTTTCACACTTTTTGTCTTTGATGCCGGAGTCACCTAGTGCAG | 9000 fluorescence intensity (a.u.)
30 | CGATCCACCGCCTCCATCGTCCCTTGCATCCACGCCGTCGCGGAGTCACCTAGTGCAG | 11600 fluorescence intensity (a.u.)
31 | CAGCTTCATACTCCGGGTAACATTCCTTATCTAGCCAAAGCGGAGTCACCTAGTGCAG | 8480 fluorescence intensity (a.u.)
32 | ACCTACTCACAATCACAGAATCACATCATAACATTATTGTCGGAGTCACCTAGTGCAG | 9160 fluorescence intensity (a.u.)
33 | GAGTCAACTCTCTCTGTCGTCATCTTCTTCGTGTGTGCAGCGGAGTCACCTAGTGCAG | 8320 fluorescence intensity (a.u.)
34 | GCACTATCCTACTCGGCTAGTATTCTCCTTTCCGTCTCCCCGGAGTCACCTAGTGCAG | 10300 fluorescence intensity (a.u.)
35 | CTGGTCACTAAGACTGTGTTCTCTCTCCGGCACACAAAACCGGAGTCACCTAGTGCAG | 8750 fluorescence intensity (a.u.)
36 | AGGTATATGATAAAATTGAATGGTGGAGGGTTGTGATTGGCGGAGTCACCTAGTGCAG | 8320 fluorescence intensity (a.u.)
37 | GTGGGTTGGGCCAAAGAAAGGTAGGCTGAGTGGAGGGATGCGGAGTCACCTAGTGCAG | 10400 fluorescence intensity (a.u.)
38 | CCCGTCCAGCATTTTGTGTCTTGTCATCCTCGCCACCTCACGGAGTCACCTAGTGCAG | 9270 fluorescence intensity (a.u.)
39 | GGATTCTCTCTTCGGTTTGCACGTGGTTCTCTGCTGATAACGGAGTCACCTAGTGCAG | 9300 fluorescence intensity (a.u.)
40 | TCTCACATGTAATGGTATTTCTAACCGGTGCATCTTTATACGGAGTCACCTAGTGCAG | 8160 fluorescence intensity (a.u.)
41 | AAGAAGGTGAGCTATTGGTTATGTTGATGTATTCATTATACGGAGTCACCTAGTGCAG | 9760 fluorescence intensity (a.u.)
42 | TTTGCCATTTGAGCATTTTTCTTCCTTTATTTTGTTAATACGGAGTCACCTAGTGCAG | 8790 fluorescence intensity (a.u.)
